From US9775348B2, “Composition comprising a sesterterpene and use thereof as antibiotic and antifungal adjuvant” (RODE PHARMA S.R.L., priority 2012, dated 2017)
At least one structure is not confirmed: it was looked up by name or label, or the drawing left a doubt.

Test system: fungi
Test: Fungal tests, overall conclusion versus fluconazole
Type: cell-based
Conditions: 0.07 mg versus 2 mg (about 1:28 ratio); alone or combined with each other
Experimental: A study about the efficacy of the composition of the present invention to some fungi was conducted. The compositions were tested according to the MIC method. The methodology being used is herein reported.
The tested fungi strains were as follows: i) Aspergillus niger, ATCC 16404; ii) Trichoderma viride, ATCC 28020; iii) Penicillium funiculosum ATCC 9644 and iv) Chaetomium globosum, ATCC 16021.
Bacteriostatic tests: The tests were performed by placing fungal culture aliquots (set forth in the tables below) in Petri dishes with a central well (1 centimeter diameter) in which the product to be tested was poured. All the plates were incubated at 25° C. The incubation time for solutions A, B, C, D, E and F was 72 hours, while for products. M1, M2 and M3 the time was 30 hours.
The results are expressed as inhibition halo diameter being measured over each plate. […] Consequently, a 0 mm diameter denotes an undetectable halo. The described values indicate the average from the minimum and maximum values of halos for each test. Values are expressed in mm of inhibition.

SMILES: C=C(C)[C@@H]1CC[C@]2(C(=O)O)CC[C@]3(C)[C@H](CC[C@@H]4[C@@]5(C)CC[C@H](O)C(C)(C)[C@@H]5CC[C@]43C)[C@@H]12 [Test M1, Betulinic acid]
- fungicidal activity compared with M4 (fluconazole): strong fungicidal activity than M4
